# Experimental data as given in the supplement of paper PMC12282887.
# ± gives the standard deviation of the averaged measurements. Values are raw readings; no control value is given beside them.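 Maximum concentrations were near the MIC for antimicrobials, 500 µM for most other compounds, and as high as 1 mM for known inducer-like compounds. Deletion strains began with a tenfold smaller inoculum, and wells with growth under 10% of the overall median counted as non-growing.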
# Test system: Escherichia coli BW25113
# Assay: growth (OD600 area under curve, 8 h) (OD600 x h); higher = more growth
# Protocol: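 E. coli BW25113 reporter strains (wild type, ΔmarA, ΔsoxS, Δrob, each carrying one of 8 lux reporter plasmids) were grown in 40 µl LB in 384-well plates at 37°C, 800 rpm, with each compound at 4 two-fold concentrations, in biological duplicates. Growth is the baseline-corrected OD600 area under the curve over 8 h (0-8 h WT, 1-9 h deletion strains).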
smiles,measurement,setting,value
Cn1c(=O)[nH]c2[nH]c(=O)[nH]c2c1=O [1-Methyluric acid],growth,"11.4 µg/ml, genetic background: wild type, reporter plasmid: EVC",2.34 ± 0.13
same,growth,"11.4 µg/ml, genetic background: wild type, reporter plasmid: acrABp",3 ± 0.2
same,growth,"11.4 µg/ml, genetic background: wild type, reporter plasmid: marRABp",3 ± 0.1
same,growth,"11.4 µg/ml, genetic background: wild type, reporter plasmid: micFp",2.98 ± 0.41
same,growth,"11.4 µg/ml, genetic background: wild type, reporter plasmid: ompFp",2.746 ± 0.025
same,growth,"11.4 µg/ml, genetic background: wild type, reporter plasmid: robp",2.83 ± 0.055
same,growth,"11.4 µg/ml, genetic background: wild type, reporter plasmid: soxSp",2.65 ± 0.061
same,growth,"11.4 µg/ml, genetic background: wild type, reporter plasmid: tolCp",2.78 ± 0.19
same,growth,"11.4 µg/ml, genetic background: ΔmarA, reporter plasmid: EVC",2.76 ± 0.056
same,growth,"11.4 µg/ml, genetic background: ΔmarA, reporter plasmid: acrABp",3.78 ± 1
same,growth,"11.4 µg/ml, genetic background: ΔmarA, reporter plasmid: marRABp",3.3 ± 0.43
same,growth,"11.4 µg/ml, genetic background: ΔmarA, reporter plasmid: micFp",2.83 ± 0.35
same,growth,"11.4 µg/ml, genetic background: ΔmarA, reporter plasmid: ompFp",3.08 ± 0.4
same,growth,"11.4 µg/ml, genetic background: ΔmarA, reporter plasmid: robp",3.01 ± 0.2
same,growth,"11.4 µg/ml, genetic background: ΔmarA, reporter plasmid: soxSp",2.32 ± 0.28
same,growth,"11.4 µg/ml, genetic background: ΔmarA, reporter plasmid: tolCp",2.63 ± 0.069
same,growth,"11.4 µg/ml, genetic background: Δrob, reporter plasmid: EVC",2.39 ± 0.13
same,growth,"11.4 µg/ml, genetic background: Δrob, reporter plasmid: acrABp",3.09 ± 0.099
same,growth,"11.4 µg/ml, genetic background: Δrob, reporter plasmid: marRABp",3.1 ± 0.25
same,growth,"11.4 µg/ml, genetic background: Δrob, reporter plasmid: micFp",2.74 ± 0.23
same,growth,"11.4 µg/ml, genetic background: Δrob, reporter plasmid: ompFp",2.14 ± 0.27
same,growth,"11.4 µg/ml, genetic background: Δrob, reporter plasmid: robp",2.52 ± 0.29
same,growth,"11.4 µg/ml, genetic background: Δrob, reporter plasmid: soxSp",2.43 ± 0.087
same,growth,"11.4 µg/ml, genetic background: Δrob, reporter plasmid: tolCp",2.47 ± 0.22
same,growth,"11.4 µg/ml, genetic background: ΔsoxS, reporter plasmid: EVC",2.45 ± 0.12
same,growth,"11.4 µg/ml, genetic background: ΔsoxS, reporter plasmid: acrABp",2.68 ± 1.1
same,growth,"11.4 µg/ml, genetic background: ΔsoxS, reporter plasmid: marRABp",3.12 ± 0.67
same,growth,"11.4 µg/ml, genetic background: ΔsoxS, reporter plasmid: micFp",2.41 ± 0.12
same,growth,"11.4 µg/ml, genetic background: ΔsoxS, reporter plasmid: ompFp",2.55 ± 0.51
same,growth,"11.4 µg/ml, genetic background: ΔsoxS, reporter plasmid: robp",2.76 ± 0.093
same,growth,"11.4 µg/ml, genetic background: ΔsoxS, reporter plasmid: soxSp",2.68 ± 0.66
same,growth,"11.4 µg/ml, genetic background: ΔsoxS, reporter plasmid: tolCp",2.54 ± 0.55
same,growth,"22.8 µg/ml, genetic background: wild type, reporter plasmid: EVC",2.28 ± 0.29
same,growth,"22.8 µg/ml, genetic background: wild type, reporter plasmid: acrABp",2.99 ± 0.34
same,growth,"22.8 µg/ml, genetic background: wild type, reporter plasmid: marRABp",2.885 ± 0.0078
same,growth,"22.8 µg/ml, genetic background: wild type, reporter plasmid: micFp",2.87 ± 0.25
same,growth,"22.8 µg/ml, genetic background: wild type, reporter plasmid: ompFp",2.67 ± 0.1
same,growth,"22.8 µg/ml, genetic background: wild type, reporter plasmid: robp",2.7739 ± 0.0021
same,growth,"22.8 µg/ml, genetic background: wild type, reporter plasmid: soxSp",2.55 ± 0.17
same,growth,"22.8 µg/ml, genetic background: wild type, reporter plasmid: tolCp",2.65 ± 0.39
same,growth,"22.8 µg/ml, genetic background: ΔmarA, reporter plasmid: EVC",2.73 ± 0.054
same,growth,"22.8 µg/ml, genetic background: ΔmarA, reporter plasmid: acrABp",3.54 ± 1.3
same,growth,"22.8 µg/ml, genetic background: ΔmarA, reporter plasmid: marRABp",3.24 ± 0.71
same,growth,"22.8 µg/ml, genetic background: ΔmarA, reporter plasmid: micFp",2.75 ± 0.3
same,growth,"22.8 µg/ml, genetic background: ΔmarA, reporter plasmid: ompFp",2.93 ± 0.73
same,growth,"22.8 µg/ml, genetic background: ΔmarA, reporter plasmid: robp",3.04 ± 0.21
same,growth,"22.8 µg/ml, genetic background: ΔmarA, reporter plasmid: soxSp",2.26 ± 0.23
same,growth,"22.8 µg/ml, genetic background: ΔmarA, reporter plasmid: tolCp",2.62 ± 0.18
same,growth,"22.8 µg/ml, genetic background: Δrob, reporter plasmid: EVC",2.3 ± 0.13
same,growth,"22.8 µg/ml, genetic background: Δrob, reporter plasmid: acrABp",3.14 ± 0.12
same,growth,"22.8 µg/ml, genetic background: Δrob, reporter plasmid: marRABp",3.34 ± 0.051
same,growth,"22.8 µg/ml, genetic background: Δrob, reporter plasmid: micFp",2.761 ± 0.014
same,growth,"22.8 µg/ml, genetic background: Δrob, reporter plasmid: ompFp",2.28 ± 0.42
same,growth,"22.8 µg/ml, genetic background: Δrob, reporter plasmid: robp",2.63 ± 0.21
same,growth,"22.8 µg/ml, genetic background: Δrob, reporter plasmid: soxSp",2.45 ± 0.025
same,growth,"22.8 µg/ml, genetic background: Δrob, reporter plasmid: tolCp",2.36 ± 0.15
same,growth,"22.8 µg/ml, genetic background: ΔsoxS, reporter plasmid: EVC",2.3 ± 0.13
same,growth,"22.8 µg/ml, genetic background: ΔsoxS, reporter plasmid: acrABp",2.79 ± 1.1
same,growth,"22.8 µg/ml, genetic background: ΔsoxS, reporter plasmid: marRABp",3.09 ± 0.57
same,growth,"22.8 µg/ml, genetic background: ΔsoxS, reporter plasmid: micFp",2.08 ± 0.14
same,growth,"22.8 µg/ml, genetic background: ΔsoxS, reporter plasmid: ompFp",2.27 ± 0.33
same,growth,"22.8 µg/ml, genetic background: ΔsoxS, reporter plasmid: robp",2.97 ± 0.34
same,growth,"22.8 µg/ml, genetic background: ΔsoxS, reporter plasmid: soxSp",2.47 ± 0.7
same,growth,"22.8 µg/ml, genetic background: ΔsoxS, reporter plasmid: tolCp",2.42 ± 0.48
same,growth,"45.5 µg/ml, genetic background: wild type, reporter plasmid: EVC",2.362 ± 0.01
same,growth,"45.5 µg/ml, genetic background: wild type, reporter plasmid: acrABp",3.19 ± 0.54
same,growth,"45.5 µg/ml, genetic background: wild type, reporter plasmid: marRABp",3.08 ± 0.36
same,growth,"45.5 µg/ml, genetic background: wild type, reporter plasmid: micFp",2.67 ± 0.083
same,growth,"45.5 µg/ml, genetic background: wild type, reporter plasmid: ompFp",2.94 ± 0.096
same,growth,"45.5 µg/ml, genetic background: wild type, reporter plasmid: robp",2.9 ± 0.26
same,growth,"45.5 µg/ml, genetic background: wild type, reporter plasmid: soxSp",2.47 ± 0.12
same,growth,"45.5 µg/ml, genetic background: wild type, reporter plasmid: tolCp",2.5 ± 0.17
same,growth,"45.5 µg/ml, genetic background: ΔmarA, reporter plasmid: EVC",3.45 ± 0.68
same,growth,"45.5 µg/ml, genetic background: ΔmarA, reporter plasmid: acrABp",4.51 ± 0.87
same,growth,"45.5 µg/ml, genetic background: ΔmarA, reporter plasmid: marRABp",4.08 ± 0.6
same,growth,"45.5 µg/ml, genetic background: ΔmarA, reporter plasmid: micFp",2.768 ± 0.021
same,growth,"45.5 µg/ml, genetic background: ΔmarA, reporter plasmid: ompFp",3.58 ± 0.23
same,growth,"45.5 µg/ml, genetic background: ΔmarA, reporter plasmid: robp",4.26 ± 0.29
same,growth,"45.5 µg/ml, genetic background: ΔmarA, reporter plasmid: soxSp",2.67 ± 0.36
same,growth,"45.5 µg/ml, genetic background: ΔmarA, reporter plasmid: tolCp",2.98 ± 0.51
same,growth,"45.5 µg/ml, genetic background: Δrob, reporter plasmid: EVC",2.15 ± 0.09
same,growth,"45.5 µg/ml, genetic background: Δrob, reporter plasmid: acrABp",3.37 ± 0.29
same,growth,"45.5 µg/ml, genetic background: Δrob, reporter plasmid: marRABp",3.41 ± 0.56
same,growth,"45.5 µg/ml, genetic background: Δrob, reporter plasmid: micFp",2.72 ± 0.29
same,growth,"45.5 µg/ml, genetic background: Δrob, reporter plasmid: ompFp",2.699 ± 0.026
same,growth,"45.5 µg/ml, genetic background: Δrob, reporter plasmid: robp",2.85 ± 0.55
same,growth,"45.5 µg/ml, genetic background: Δrob, reporter plasmid: soxSp",2.27 ± 0.21
same,growth,"45.5 µg/ml, genetic background: Δrob, reporter plasmid: tolCp",2.42 ± 0.41
same,growth,"45.5 µg/ml, genetic background: ΔsoxS, reporter plasmid: EVC",2.29 ± 0.26
same,growth,"45.5 µg/ml, genetic background: ΔsoxS, reporter plasmid: acrABp",3.02 ± 1.6
same,growth,"45.5 µg/ml, genetic background: ΔsoxS, reporter plasmid: marRABp",3.28 ± 0.72
same,growth,"45.5 µg/ml, genetic background: ΔsoxS, reporter plasmid: micFp",1.98 ± 0.081
same,growth,"45.5 µg/ml, genetic background: ΔsoxS, reporter plasmid: ompFp",2.66 ± 0.51
same,growth,"45.5 µg/ml, genetic background: ΔsoxS, reporter plasmid: robp",3.31 ± 0.41
same,growth,"45.5 µg/ml, genetic background: ΔsoxS, reporter plasmid: soxSp",2.68 ± 1.1
same,growth,"45.5 µg/ml, genetic background: ΔsoxS, reporter plasmid: tolCp",2.22 ± 0.18
same,growth,"91.1 µg/ml, genetic background: wild type, reporter plasmid: EVC",2.48 ± 0.064
same,growth,"91.1 µg/ml, genetic background: wild type, reporter plasmid: acrABp",3.19 ± 0.45
same,growth,"91.1 µg/ml, genetic background: wild type, reporter plasmid: marRABp",3.13 ± 0.087
same,growth,"91.1 µg/ml, genetic background: wild type, reporter plasmid: micFp",2.69 ± 0.35
same,growth,"91.1 µg/ml, genetic background: wild type, reporter plasmid: ompFp",2.91 ± 0.27
same,growth,"91.1 µg/ml, genetic background: wild type, reporter plasmid: robp",2.97 ± 0.42
same,growth,"91.1 µg/ml, genetic background: wild type, reporter plasmid: soxSp",2.51 ± 0.23
same,growth,"91.1 µg/ml, genetic background: wild type, reporter plasmid: tolCp",2.51 ± 0.49
same,growth,"91.1 µg/ml, genetic background: ΔmarA, reporter plasmid: EVC",3.19 ± 0.5
same,growth,"91.1 µg/ml, genetic background: ΔmarA, reporter plasmid: acrABp",4.26 ± 0.34
same,growth,"91.1 µg/ml, genetic background: ΔmarA, reporter plasmid: marRABp",3.46 ± 0.79
same,growth,"91.1 µg/ml, genetic background: ΔmarA, reporter plasmid: micFp",2.65 ± 0.13
same,growth,"91.1 µg/ml, genetic background: ΔmarA, reporter plasmid: ompFp",3.49 ± 0.32
same,growth,"91.1 µg/ml, genetic background: ΔmarA, reporter plasmid: robp",3.94 ± 0.4
same,growth,"91.1 µg/ml, genetic background: ΔmarA, reporter plasmid: soxSp",2.46 ± 0.21
same,growth,"91.1 µg/ml, genetic background: ΔmarA, reporter plasmid: tolCp",2.73 ± 0.27
same,growth,"91.1 µg/ml, genetic background: Δrob, reporter plasmid: EVC",2.29 ± 0.2
same,growth,"91.1 µg/ml, genetic background: Δrob, reporter plasmid: acrABp",3.27 ± 0.083
same,growth,"91.1 µg/ml, genetic background: Δrob, reporter plasmid: marRABp",3.65 ± 0.21
same,growth,"91.1 µg/ml, genetic background: Δrob, reporter plasmid: micFp",2.68 ± 0.42
same,growth,"91.1 µg/ml, genetic background: Δrob, reporter plasmid: ompFp",2.65 ± 0.18
same,growth,"91.1 µg/ml, genetic background: Δrob, reporter plasmid: robp",2.7 ± 0.32
same,growth,"91.1 µg/ml, genetic background: Δrob, reporter plasmid: soxSp",2.32 ± 0.34
same,growth,"91.1 µg/ml, genetic background: Δrob, reporter plasmid: tolCp",2.43 ± 0.67
same,growth,"91.1 µg/ml, genetic background: ΔsoxS, reporter plasmid: EVC",2.37 ± 0.17
same,growth,"91.1 µg/ml, genetic background: ΔsoxS, reporter plasmid: acrABp",2.85 ± 1.4
same,growth,"91.1 µg/ml, genetic background: ΔsoxS, reporter plasmid: marRABp",3.26 ± 0.79
same,growth,"91.1 µg/ml, genetic background: ΔsoxS, reporter plasmid: micFp",1.87 ± 0.099
same,growth,"91.1 µg/ml, genetic background: ΔsoxS, reporter plasmid: ompFp",2.67 ± 0.72
same,growth,"91.1 µg/ml, genetic background: ΔsoxS, reporter plasmid: robp",3.15 ± 0.23
same,growth,"91.1 µg/ml, genetic background: ΔsoxS, reporter plasmid: soxSp",2.61 ± 1.2
same,growth,"91.1 µg/ml, genetic background: ΔsoxS, reporter plasmid: tolCp",2.21 ± 0.38

# Rewritten with bars between the fields: entries from further up
smiles | measurement | setting | value
Cn1c(=O)[nH]c2[nH]c(=O)[nH]c2c1=O [1-Methyluric acid] | growth | 11.4 µg/ml, genetic background: ΔmarA, reporter plasmid: micFp | 2.83 ± 0.35
same | growth | 45.5 µg/ml, genetic background: wild type, reporter plasmid: tolCp | 2.5 ± 0.17

# Part of the list above, bar-delimited.
smiles | measurement | setting | value
Cn1c(=O)[nH]c2[nH]c(=O)[nH]c2c1=O [1-Methyluric acid] | growth | 22.8 µg/ml, genetic background: Δrob, reporter plasmid: soxSp | 2.45 ± 0.025
same | growth | 45.5 µg/ml, genetic background: Δrob, reporter plasmid: tolCp | 2.42 ± 0.41

# Laid out differently: entries from further up
smiles | measurement | setting | value
Cn1c(=O)[nH]c2[nH]c(=O)[nH]c2c1=O [1-Methyluric acid] | growth | 22.8 µg/ml, genetic background: ΔsoxS, reporter plasmid: ompFp | 2.27 ± 0.33
same | growth | 22.8 µg/ml, genetic background: ΔsoxS, reporter plasmid: robp | 2.97 ± 0.34
